In patent US20080214844A1, “Icaritin and desmethylicaritin as anti-cancer agents” (priority 2007, published 2008):
Some results were stated once for a whole list of compounds, not compound by compound. At least one structure is not confirmed: it was looked up by name or label, or the drawing left a doubt.

The chains behind the UniProt entries cited, without tags or fusion partners.
UniProt P49327, whole entry: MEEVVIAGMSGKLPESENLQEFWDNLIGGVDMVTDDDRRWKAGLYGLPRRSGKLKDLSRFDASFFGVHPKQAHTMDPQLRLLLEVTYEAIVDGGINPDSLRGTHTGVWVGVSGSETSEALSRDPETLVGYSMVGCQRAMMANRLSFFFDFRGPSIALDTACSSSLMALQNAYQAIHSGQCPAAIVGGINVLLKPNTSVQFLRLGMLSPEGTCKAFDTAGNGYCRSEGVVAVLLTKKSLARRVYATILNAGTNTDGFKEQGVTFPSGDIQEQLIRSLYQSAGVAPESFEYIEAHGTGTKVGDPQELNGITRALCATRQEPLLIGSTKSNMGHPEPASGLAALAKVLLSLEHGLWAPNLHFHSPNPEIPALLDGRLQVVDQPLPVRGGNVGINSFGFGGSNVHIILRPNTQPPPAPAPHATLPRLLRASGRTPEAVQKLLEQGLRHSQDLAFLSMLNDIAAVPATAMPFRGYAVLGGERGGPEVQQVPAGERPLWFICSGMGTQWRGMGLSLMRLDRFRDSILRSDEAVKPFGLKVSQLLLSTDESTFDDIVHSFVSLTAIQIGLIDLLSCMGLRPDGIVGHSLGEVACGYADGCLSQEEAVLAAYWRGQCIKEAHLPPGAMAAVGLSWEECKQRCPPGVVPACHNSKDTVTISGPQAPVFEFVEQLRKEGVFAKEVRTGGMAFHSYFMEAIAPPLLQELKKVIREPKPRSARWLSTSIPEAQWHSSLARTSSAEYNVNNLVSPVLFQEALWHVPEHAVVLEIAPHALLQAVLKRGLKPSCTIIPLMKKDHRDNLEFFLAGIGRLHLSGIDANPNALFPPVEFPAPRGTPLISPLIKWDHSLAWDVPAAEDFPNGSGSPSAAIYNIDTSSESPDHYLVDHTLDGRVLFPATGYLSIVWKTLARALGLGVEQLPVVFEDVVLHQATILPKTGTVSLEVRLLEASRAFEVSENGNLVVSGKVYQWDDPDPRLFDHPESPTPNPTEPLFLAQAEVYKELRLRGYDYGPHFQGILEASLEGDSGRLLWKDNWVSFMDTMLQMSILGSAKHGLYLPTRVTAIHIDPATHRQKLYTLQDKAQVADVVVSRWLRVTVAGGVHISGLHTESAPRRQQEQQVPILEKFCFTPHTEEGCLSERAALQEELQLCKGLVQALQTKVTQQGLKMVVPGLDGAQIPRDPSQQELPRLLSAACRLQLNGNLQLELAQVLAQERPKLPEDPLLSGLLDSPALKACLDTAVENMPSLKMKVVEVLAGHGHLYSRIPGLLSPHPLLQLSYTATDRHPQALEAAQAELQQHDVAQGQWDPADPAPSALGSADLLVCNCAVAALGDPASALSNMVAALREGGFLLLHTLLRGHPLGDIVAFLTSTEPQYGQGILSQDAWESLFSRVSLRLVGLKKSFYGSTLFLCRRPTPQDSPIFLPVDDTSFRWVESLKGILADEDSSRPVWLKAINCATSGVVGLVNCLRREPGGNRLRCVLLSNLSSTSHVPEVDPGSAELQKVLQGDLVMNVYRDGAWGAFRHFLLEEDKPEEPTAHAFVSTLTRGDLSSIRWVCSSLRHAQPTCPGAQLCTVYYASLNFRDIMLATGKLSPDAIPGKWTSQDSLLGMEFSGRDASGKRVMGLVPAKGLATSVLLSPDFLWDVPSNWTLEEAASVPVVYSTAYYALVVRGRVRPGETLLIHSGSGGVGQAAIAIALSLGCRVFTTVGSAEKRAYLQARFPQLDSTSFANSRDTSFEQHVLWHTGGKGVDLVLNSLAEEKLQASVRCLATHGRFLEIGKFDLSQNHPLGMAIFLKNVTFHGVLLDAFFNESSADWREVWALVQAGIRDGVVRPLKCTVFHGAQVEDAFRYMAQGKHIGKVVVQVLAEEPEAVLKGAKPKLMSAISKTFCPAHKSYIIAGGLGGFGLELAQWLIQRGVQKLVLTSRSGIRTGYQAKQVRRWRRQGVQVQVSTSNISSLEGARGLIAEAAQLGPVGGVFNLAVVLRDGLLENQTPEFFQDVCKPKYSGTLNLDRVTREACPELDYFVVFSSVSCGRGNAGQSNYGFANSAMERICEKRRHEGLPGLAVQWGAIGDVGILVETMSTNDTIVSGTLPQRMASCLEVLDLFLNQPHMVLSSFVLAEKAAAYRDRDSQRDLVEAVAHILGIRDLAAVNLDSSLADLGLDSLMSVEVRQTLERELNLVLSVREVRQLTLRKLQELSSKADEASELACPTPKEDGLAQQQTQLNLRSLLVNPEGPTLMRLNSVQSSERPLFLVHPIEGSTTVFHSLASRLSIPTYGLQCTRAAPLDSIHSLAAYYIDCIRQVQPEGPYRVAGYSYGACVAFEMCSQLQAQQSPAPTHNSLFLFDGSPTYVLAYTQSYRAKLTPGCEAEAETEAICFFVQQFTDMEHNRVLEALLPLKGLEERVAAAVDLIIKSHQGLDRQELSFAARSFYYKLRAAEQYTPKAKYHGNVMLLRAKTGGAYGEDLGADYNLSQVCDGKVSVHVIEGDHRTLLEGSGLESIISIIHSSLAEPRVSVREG

Columns and labels:
[1] = system: LNCaP prostate cancer cells; assay: Lipogenesis: incorporation of 2-14C-labeled acetate into cellular lipids; type: cell-based, human; conditions: 0.5 uM, 5 h, 2-14C-acetate incorporation
Protocol: To investigate the ability of Icaritin and Desmethylicaritin to inhibit lipogenesis, LNCaP prostate cancer cells were treated with different concentrations of Icaritin and Desmethylicaritin for 5 h, and incorporation of 2-^14C-labeled acetate into cellular lipids was quantitated. Both of Icaritin and Desmethylicaritin inhibited lipogenesis by more than 50% at a concentration of 0.5 uM. Higher concentrations further reduced lipogenesis in a dose-dependent way. A further decline was observed after 24 h of exposure.

[2] = biological target: T1, fatty acid synthase (FAS) (Homo sapiens, UniProt P49327); assay: In vitro enzymatic FAS activity in LNCaP protein extracts; type: biochemical; conditions: 0.5 μM, protein extracts from LNCaP cells, remaining activity
T1 construct: Protein extracts from LNCaP cells; endogenous in cells; host or cells: LNCaP prostate cancer cells (protein extract)

Row | Compound | inhibition of lipogenesis [1] | in vitro enzymatic FAS activity reduced to [2]
1 | CC(C)=CCc1c(O)cc(O)c2c(=O)c(O)c(-c3ccc(O)cc3)oc12 [Desmethylicaritin] | more than 50% | less than 50%
2 | COc1ccc(-c2oc3c(CC=C(C)C)c(O)cc(O)c3c(=O)c2O)cc1 [Icaritin] | – | less than 50%
